This note sets out measurements from paper PMC11180117.

Chains of the proteins cited; added tags and fusions are not shown. Lines headed by an entry give the natural chain unless they say otherwise; changes in a name come on top.
UniProt O23174: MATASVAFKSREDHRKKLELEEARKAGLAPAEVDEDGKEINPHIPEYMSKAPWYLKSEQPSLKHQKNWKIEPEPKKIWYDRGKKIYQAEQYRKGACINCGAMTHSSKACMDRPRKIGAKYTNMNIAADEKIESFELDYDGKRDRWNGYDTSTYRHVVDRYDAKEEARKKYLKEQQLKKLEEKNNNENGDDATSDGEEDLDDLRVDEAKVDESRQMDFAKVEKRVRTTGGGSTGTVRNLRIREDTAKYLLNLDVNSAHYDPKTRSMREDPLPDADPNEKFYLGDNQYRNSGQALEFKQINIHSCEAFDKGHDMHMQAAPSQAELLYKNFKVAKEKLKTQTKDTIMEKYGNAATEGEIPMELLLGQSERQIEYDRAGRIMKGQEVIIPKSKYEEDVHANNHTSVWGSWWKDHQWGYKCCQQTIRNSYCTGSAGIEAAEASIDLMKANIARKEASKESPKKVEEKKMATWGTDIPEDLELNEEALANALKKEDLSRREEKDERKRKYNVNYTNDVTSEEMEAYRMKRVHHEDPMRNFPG
UniProt F4JXC2: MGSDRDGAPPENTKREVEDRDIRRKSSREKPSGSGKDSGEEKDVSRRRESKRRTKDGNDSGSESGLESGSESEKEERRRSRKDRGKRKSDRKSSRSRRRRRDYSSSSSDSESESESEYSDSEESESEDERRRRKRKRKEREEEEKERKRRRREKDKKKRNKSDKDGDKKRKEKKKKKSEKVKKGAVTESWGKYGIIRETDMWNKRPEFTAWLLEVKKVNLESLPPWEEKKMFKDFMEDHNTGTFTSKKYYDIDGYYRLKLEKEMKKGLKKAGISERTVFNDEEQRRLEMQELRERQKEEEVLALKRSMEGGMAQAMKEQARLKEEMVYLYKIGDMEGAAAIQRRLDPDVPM

No constants are given. Whether binding was seen depends on the method and setting. Binding calls can cover weak binding; strength is not graded here. For some assays here: In cells and extracts the contact can be indirect. For some assays here: Sequences can lack the tags named with a protein.

The target of assay [1] is T1, COP1 (Arabidopsis thaliana) (UniProt P43254).
T1 sequence: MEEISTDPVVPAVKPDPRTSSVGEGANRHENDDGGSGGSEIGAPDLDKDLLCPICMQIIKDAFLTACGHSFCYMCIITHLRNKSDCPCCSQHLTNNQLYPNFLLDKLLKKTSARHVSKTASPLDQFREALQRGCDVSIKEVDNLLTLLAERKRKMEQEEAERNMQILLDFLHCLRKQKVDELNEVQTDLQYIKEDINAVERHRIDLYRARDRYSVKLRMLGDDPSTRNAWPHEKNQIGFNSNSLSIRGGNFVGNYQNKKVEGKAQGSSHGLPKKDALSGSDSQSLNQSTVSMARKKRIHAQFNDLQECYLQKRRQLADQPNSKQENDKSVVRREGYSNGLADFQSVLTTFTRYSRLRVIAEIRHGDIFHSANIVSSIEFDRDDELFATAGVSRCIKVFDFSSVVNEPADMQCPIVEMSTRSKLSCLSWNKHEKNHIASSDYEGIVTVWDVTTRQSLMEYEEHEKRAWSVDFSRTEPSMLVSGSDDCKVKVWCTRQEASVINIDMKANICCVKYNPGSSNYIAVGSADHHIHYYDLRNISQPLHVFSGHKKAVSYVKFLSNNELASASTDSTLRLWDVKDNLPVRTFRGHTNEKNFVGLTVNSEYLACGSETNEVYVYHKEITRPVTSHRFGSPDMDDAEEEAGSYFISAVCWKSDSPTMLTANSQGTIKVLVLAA
Kind of assay: two-hybrid; yeast two-hybrid in yeast cells: DCS proteins, DCS1 parts and mutated DCS1 proteins against COP1 (Fig. 5a, c, e; Supplementary Fig. 15a).

Assay [2] has as its target DCS5 (Arabidopsis thaliana) (UniProt O23174). The assay can be described thus: two-hybrid; Supplementary Fig. 15b, c: DCS1 and mutated DCS1 proteins against DCS5, SKIP, SR45 and U1-70K; yeast two-hybrid is named only for panel a of the same figure.
For assay [3], the target named is T2, SKIP (Arabidopsis thaliana) (UniProt O80653).
T2 sequence: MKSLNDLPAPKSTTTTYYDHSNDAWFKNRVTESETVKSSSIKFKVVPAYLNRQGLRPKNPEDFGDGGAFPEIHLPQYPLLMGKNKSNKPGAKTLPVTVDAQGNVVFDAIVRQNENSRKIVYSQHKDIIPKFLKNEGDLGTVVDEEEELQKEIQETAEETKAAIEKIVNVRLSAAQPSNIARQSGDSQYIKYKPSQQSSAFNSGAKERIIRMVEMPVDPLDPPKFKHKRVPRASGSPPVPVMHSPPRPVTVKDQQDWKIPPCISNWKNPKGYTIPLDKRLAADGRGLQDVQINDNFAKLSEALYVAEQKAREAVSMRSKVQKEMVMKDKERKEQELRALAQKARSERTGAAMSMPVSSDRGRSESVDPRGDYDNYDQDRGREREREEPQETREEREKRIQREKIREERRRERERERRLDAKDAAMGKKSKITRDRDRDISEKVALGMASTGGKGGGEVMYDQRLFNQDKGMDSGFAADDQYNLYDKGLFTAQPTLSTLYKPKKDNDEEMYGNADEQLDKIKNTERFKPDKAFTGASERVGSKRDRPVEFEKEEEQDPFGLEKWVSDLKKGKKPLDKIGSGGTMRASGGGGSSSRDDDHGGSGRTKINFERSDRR
The assay is described as above.

The target of assay [4] is T3, SR45 (Arabidopsis thaliana) (UniProt Q9SEE9).
T3 sequence: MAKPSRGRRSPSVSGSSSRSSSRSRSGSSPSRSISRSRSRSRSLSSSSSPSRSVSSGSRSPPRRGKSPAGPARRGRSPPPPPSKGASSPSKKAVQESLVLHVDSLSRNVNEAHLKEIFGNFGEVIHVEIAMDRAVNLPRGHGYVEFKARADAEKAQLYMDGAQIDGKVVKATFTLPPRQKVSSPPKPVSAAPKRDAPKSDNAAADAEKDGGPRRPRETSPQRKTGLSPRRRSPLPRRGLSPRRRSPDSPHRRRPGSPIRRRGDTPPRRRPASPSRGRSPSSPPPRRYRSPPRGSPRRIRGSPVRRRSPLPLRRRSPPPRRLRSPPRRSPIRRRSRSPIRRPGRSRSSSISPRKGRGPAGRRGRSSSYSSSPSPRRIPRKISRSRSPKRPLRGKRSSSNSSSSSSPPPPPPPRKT
Described as above.

Assay [5] deals with T4, U1-70K (Arabidopsis thaliana) (UniProt Q42404).
T4 sequence: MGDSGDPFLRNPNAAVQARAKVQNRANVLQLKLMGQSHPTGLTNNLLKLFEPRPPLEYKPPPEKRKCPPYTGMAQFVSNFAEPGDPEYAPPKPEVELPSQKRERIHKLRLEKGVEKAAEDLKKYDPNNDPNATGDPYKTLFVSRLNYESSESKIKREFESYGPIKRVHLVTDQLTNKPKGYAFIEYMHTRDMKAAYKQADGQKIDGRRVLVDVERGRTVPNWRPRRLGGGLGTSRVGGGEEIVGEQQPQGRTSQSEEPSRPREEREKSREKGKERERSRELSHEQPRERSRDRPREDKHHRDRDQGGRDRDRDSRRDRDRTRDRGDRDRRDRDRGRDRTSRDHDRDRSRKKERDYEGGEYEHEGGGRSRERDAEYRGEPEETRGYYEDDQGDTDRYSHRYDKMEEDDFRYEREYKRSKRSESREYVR
The assay is described as above.

For assay [6], the target named is T5, COP1-YFP^N (Arabidopsis thaliana) (UniProt P43254).
T5 sequence: T1 sequence
The assay can be described thus: split reporter; BiFC in epithelial cells of N. benthamiana leaves, Agrobacterium infiltration, YFP fluorescence by confocal microscopy 48 h after infiltration.

Regarding “DCS1 (Dominant cop1-6 Suppressor 1) (from UniProt F4JXC2)”, the binding result in assay [1], in assay [2], in assay [3], in assay [4] and in assay [5] was “binds” each time.
In the case of DCS1-1 (Arabidopsis thaliana), the binding entry in assay [1] was “no binding”; in assay [3], “binds”; in assay [4], “binds”; in assay [5], “binds”.
For DCS1-2 (Arabidopsis thaliana), the binding result in assay [1] is “no binding”; in assay [3], “binds”; in assay [4], “binds”; in assay [5] it was “binds”.
Take DCS1-3 (Arabidopsis thaliana): the binding result in assay [1] was “no binding”; in assay [3], “binds”; in assay [4], “binds”; in assay [5] it was “binds”.
As to DCS1-YFP^C (Arabidopsis thaliana), the binding result in assay [6] is “binds”.
Take DCS2 (Arabidopsis thaliana): the binding result in assay [1] is given as “no binding”.
The same measure, in the same setting: then DCS3 (Arabidopsis thaliana), with “no binding”; and DCS4 (Arabidopsis thaliana), with “no binding”.
DCS5 (from UniProt O23174): the binding result in assay [1] is “no binding”.
In the case of DCS6 (Arabidopsis thaliana), the binding result in assay [1] was “no binding”.
